Test [1] has as its target TAC102 (endogenous) (Trypanosoma brucei brucei (endogenous in Lister 427 29-13 PCF)) (UniProt Q57XN5). The test is described as follows: affinity purification with mass spectrometry; monoclonal anti-TAC102 antibody crosslinked to protein A / protein G magnetic beads; mitochondrial enriched fraction of PCF 29.13 cells lysed in 25 mM Tris, 150 mM NaCl, 1 mM EDTA, 1% Nonidet P-40, 5% glycerol; empty beads as negative control; elution with 0.1 M glycine pH 2.4; nanoLC-MS/MS; triplicate.

Sequences of proteins named here, by UniProt entry; tags and fusion partners are left off. A change or cut given only in a name is not applied to a line headed by its entry.
UniProt Q57XN5: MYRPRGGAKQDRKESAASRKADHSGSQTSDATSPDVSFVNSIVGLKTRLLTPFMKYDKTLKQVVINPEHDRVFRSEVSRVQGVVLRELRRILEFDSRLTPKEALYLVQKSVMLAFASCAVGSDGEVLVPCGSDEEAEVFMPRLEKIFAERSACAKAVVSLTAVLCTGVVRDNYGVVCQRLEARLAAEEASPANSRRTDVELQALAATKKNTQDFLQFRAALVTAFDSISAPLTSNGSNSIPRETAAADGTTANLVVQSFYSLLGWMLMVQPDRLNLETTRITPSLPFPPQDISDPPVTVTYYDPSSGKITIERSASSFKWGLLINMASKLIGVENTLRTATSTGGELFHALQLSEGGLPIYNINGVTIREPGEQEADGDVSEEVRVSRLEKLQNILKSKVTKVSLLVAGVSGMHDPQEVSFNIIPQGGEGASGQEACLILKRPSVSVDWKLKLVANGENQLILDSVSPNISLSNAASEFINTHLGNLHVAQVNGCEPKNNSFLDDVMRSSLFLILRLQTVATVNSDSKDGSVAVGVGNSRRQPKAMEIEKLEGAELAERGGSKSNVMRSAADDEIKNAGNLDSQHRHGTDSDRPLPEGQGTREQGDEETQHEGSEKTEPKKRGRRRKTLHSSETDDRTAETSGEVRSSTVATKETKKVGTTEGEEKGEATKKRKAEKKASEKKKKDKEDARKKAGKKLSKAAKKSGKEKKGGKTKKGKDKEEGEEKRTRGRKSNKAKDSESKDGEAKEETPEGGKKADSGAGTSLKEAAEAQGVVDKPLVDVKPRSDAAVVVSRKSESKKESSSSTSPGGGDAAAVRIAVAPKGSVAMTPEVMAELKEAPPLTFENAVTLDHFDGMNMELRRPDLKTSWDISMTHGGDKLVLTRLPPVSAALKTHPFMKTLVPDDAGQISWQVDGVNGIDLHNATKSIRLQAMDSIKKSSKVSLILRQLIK
UniProt Q57WR0: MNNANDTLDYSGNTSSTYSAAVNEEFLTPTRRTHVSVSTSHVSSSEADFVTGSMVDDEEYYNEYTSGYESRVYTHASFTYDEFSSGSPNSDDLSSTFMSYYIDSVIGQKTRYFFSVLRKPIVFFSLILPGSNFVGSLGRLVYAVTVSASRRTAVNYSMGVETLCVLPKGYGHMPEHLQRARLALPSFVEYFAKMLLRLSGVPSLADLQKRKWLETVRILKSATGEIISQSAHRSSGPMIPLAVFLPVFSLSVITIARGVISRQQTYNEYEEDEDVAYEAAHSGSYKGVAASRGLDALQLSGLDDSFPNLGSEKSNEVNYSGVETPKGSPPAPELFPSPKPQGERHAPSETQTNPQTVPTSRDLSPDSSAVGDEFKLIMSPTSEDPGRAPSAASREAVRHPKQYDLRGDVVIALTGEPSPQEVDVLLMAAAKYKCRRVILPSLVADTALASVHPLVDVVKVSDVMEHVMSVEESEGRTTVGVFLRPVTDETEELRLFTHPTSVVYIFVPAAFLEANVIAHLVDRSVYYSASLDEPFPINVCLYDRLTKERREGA
UniProt Q57UK0: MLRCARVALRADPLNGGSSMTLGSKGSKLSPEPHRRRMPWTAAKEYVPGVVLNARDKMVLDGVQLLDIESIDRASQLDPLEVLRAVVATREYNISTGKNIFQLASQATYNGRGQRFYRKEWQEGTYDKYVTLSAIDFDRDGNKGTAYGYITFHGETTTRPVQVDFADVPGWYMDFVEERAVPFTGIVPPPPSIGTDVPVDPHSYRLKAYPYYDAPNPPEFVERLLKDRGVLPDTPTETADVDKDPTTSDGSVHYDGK
UniProt Q383D2: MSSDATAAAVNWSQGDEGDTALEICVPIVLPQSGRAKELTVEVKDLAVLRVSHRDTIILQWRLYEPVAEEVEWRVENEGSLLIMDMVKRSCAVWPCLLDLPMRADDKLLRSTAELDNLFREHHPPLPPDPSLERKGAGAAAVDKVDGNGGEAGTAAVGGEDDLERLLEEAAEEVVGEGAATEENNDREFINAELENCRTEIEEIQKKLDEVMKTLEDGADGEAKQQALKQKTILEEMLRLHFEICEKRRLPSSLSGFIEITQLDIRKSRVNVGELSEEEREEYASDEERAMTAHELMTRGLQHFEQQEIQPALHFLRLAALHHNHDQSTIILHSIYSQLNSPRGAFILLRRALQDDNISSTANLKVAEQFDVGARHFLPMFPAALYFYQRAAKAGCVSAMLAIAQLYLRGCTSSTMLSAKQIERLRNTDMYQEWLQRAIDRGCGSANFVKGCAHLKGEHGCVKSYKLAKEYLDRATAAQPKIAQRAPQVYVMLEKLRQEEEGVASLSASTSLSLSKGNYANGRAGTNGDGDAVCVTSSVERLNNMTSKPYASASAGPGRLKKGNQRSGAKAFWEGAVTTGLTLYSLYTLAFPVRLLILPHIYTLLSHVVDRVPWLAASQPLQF
UniProt Q57ZV5: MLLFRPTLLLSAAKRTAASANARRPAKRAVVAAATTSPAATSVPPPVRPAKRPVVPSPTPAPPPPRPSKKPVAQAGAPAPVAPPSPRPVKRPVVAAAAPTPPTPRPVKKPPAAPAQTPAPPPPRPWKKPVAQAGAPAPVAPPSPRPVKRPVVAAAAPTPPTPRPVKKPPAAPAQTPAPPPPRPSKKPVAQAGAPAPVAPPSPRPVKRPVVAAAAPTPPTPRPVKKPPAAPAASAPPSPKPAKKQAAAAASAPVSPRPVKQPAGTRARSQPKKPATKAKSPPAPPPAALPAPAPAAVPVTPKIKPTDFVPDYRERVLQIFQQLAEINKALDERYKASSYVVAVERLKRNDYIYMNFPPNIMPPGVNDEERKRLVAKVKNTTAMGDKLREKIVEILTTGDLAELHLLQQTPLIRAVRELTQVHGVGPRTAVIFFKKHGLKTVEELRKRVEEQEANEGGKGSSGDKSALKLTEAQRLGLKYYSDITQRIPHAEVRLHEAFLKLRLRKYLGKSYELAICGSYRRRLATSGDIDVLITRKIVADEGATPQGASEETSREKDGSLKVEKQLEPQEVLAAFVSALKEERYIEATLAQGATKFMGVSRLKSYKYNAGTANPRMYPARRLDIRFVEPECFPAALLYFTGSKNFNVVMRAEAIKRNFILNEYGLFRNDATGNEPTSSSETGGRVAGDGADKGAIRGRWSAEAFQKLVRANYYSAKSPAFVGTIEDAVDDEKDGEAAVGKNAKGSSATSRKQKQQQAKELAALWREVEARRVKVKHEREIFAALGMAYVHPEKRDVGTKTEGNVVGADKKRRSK
UniProt Q581S0: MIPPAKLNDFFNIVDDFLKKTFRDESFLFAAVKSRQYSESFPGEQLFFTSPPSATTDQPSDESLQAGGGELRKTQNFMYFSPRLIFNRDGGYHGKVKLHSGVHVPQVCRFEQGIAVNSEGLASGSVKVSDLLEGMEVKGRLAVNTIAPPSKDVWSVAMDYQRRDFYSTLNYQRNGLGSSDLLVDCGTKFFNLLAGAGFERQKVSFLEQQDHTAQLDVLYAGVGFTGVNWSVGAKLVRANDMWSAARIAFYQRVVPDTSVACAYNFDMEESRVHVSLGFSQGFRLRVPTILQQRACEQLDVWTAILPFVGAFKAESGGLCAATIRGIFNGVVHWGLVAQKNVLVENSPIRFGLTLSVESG
UniProt Q8MWB2: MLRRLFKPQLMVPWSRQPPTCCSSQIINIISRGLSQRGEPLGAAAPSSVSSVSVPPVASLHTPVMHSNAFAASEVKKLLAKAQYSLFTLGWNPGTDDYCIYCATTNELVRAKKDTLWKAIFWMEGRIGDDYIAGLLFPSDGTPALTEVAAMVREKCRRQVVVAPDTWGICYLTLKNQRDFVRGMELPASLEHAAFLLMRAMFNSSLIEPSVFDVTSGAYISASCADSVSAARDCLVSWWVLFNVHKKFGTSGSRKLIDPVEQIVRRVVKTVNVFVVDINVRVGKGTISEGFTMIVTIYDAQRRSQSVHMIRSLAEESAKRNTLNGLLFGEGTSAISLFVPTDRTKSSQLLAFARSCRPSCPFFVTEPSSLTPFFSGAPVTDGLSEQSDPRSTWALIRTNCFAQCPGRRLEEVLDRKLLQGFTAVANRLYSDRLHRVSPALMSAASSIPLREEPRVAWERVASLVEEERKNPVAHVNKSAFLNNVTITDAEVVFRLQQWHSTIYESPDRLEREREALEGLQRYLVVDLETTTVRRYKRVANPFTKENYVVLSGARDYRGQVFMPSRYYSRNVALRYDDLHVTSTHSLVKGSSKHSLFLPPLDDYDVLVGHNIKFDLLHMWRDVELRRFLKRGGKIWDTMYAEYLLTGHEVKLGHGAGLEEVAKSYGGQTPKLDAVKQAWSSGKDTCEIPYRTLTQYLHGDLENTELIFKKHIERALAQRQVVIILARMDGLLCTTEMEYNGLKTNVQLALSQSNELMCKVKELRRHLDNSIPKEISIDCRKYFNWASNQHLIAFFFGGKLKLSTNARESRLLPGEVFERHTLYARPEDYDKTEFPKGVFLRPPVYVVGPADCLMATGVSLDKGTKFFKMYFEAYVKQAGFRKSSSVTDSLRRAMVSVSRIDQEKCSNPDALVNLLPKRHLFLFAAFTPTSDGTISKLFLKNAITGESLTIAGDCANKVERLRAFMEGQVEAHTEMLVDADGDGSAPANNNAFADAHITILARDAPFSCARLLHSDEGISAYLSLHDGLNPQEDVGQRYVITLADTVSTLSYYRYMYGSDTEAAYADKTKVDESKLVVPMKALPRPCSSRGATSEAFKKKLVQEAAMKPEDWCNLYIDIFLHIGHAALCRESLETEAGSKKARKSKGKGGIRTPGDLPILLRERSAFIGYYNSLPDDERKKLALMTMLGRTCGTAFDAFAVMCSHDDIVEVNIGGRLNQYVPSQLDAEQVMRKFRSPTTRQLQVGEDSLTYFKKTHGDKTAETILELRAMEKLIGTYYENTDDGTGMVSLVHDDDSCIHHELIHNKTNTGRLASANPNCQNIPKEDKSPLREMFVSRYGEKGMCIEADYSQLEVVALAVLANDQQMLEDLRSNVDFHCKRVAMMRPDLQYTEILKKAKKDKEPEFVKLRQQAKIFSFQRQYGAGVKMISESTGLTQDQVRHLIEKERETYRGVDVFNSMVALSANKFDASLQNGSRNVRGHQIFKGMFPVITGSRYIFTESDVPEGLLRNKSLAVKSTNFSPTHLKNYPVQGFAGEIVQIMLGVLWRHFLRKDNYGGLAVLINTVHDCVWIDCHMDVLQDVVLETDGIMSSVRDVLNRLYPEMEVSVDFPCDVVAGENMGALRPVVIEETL
UniProt Q583E5: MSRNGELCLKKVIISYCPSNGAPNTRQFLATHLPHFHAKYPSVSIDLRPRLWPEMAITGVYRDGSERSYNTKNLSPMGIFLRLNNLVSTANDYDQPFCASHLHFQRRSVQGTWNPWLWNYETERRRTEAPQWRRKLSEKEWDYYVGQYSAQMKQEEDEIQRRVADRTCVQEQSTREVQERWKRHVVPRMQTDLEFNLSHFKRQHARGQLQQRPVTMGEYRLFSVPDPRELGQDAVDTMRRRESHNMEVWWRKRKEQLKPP

Test [2] has as its target Myc-BirA*-TAC102 fusion protein (Trypanosoma brucei) (UniProt Q57XN5). In words: proximity labelling; BioID: PCF cells incubated with biotin for 24 h, Myc-BirA*-TAC102 induced with tetracycline for six hours; lysis in PEME buffer with 0.5% Nonidet P-40; streptavidin-conjugated magnetic beads, nanoLC-MS/MS; enrichment against non-induced cells; four biological replicates.

No constants are given. Whether binding was seen depends on the method and setting. Binding seen in cells or lysates may run through a third protein. A yes stands for co-enrichment or nearness to the bait. Other partners may have been found.

On to “TAC60 (endogenous) (from UniProt Q57WR0)”, for which, in test [1], the binding entry is reported as “binds”.

Regarding MRPS34 (from UniProt Q57UK0), the binding result in test [2] and in test [1] was “binds” each time.

For the substance “ATOM69, mitochondrial protein import receptor (from UniProt Q383D2)”, the binding entry in test [2] and in test [1] was “binds” each time.

With “Pol beta PAK (Polymerase beta with PAK domain) (from UniProt Q57ZV5)”, in test [1], the binding entry is reported as “binds”.

Consider p166 (endogenous) (from UniProt B8XN38), for which the binding entry in test [1] is “binds”.

For the substance “TAC40 (endogenous) (from UniProt Q581S0)”, in test [1], the binding result is given as “binds”.

“POLID, mitochondrial DNA polymerase I D (from UniProt Q8MWB2) (enzyme)”: in test [2], the binding entry is on record as “binds”.

Consider MRPL43 (from UniProt Q583E5), for which the binding entry in test [2] and in test [1] was “binds” in each case.

For the origin of these results see publication PMC7521757.
